# Laboratory results: PubChem BioAssay AID1259405 (NCATS, 2018)
# Purpose: 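Knock-downs that lift recombinant protein yield in hamster ovary cells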 (primary screen)
# Cell system: Chinese hamster CHO-K1 ovary cells with stable secreted eGFP expression
# Reagent: single siRNA against mouse genes, 0.8 pmol siRNA per well (2 µl of 400 nM stock)
# Duration: 3 days
# Measured: 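Percent of the per-plate non-targeting control median for intracellular GFP per well by laser scanning cytometry and for cell viability by ATP luminescence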
# Direction: GFP, % of control: higher = more GFP per well, higher productivity; viability (ATP), % of control: higher = more viable cells (more ATP)
# Hit rule: 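Called active when intracellular GFP, relative to negative control, is at or above 120%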
# This is a random part of about 50,000 deposited reagents. Over the whole deposit, about 4,000 (8%) got an active call. 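Mouse siRNA library applied to hamster cells; one well for each siRNA.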 Entries without a mark were called inactive. The numbers tell different reagents against one gene apart.
gene knocked down,reagent,"GFP, % of control","viability (ATP), % of control"
Kcnq3,1,83.9,76.9
Kcnq3,2,47.5,64.5
Kcnq3,3,81.6,57.3
Gvin-ps6,1,80.7,92.7
Gvin-ps6,2,72.4,100
Gvin-ps6,3,164 (active),41.1
Ddc,1,90.6,133
Ddc,2,74.6,78.3
Ddc,3,243 (active),79.5
Mtfr1,1,57.7,87.3
Mtfr1,2,50.5,58.4
Mtfr1,3,82.2,84.7
Anapc11,1,75.2,86.1
Anapc11,2,98.4,87.5
Anapc11,3,59.1,68.3
Cd8b1,1,105,81
Cd8b1,2,71,72.6
Cd8b1,3,94.1,96.6
Ryr1,1,133 (active),98.4
Ryr1,2,95.3,67.1
Ryr1,3,65.2,60.5
Ctdsp1,1,96.2,82.6
Ctdsp1,2,77.2,55.8
Ctdsp1,3,113,60.9
Msx2,1,75.3,60.2
Msx2,2,45.7,66.4
Msx2,3,85.1,69.2
Rbm15b,1,71.7,97.7
Rbm15b,2,69.6,62.2
Rbm15b,3,63.7,98.3
Or56b1,1,33.9,37.4
Or56b1,2,101,87.7
Or56b1,3,15.2,18.1
Ufc1,1,71.2,87.2
Ufc1,2,120 (active),104
Ufc1,3,63,63.1
Lrwd1,1,64.4,83.1
Lrwd1,2,63.8,71
Lrwd1,3,97.6,101
Fn3k,1,60.7,85.2
Fn3k,2,122 (active),94.5
Mad2l2,1,81.1,69.2
Mad2l2,2,35.6,48.3
Mad2l2,3,52.1,87.1
Zfp655,1,73.6,66.7
Zfp655,2,60.9,79.2
Zfp655,3,74.4,87.6
Or8b50,1,114,82.1
Or8b50,2,146 (active),47.8
Or8b50,3,53.3,91.4

5 entries already listed, arranged by “GFP, % of control”, lowest first:
gene knocked down,reagent,"GFP, % of control","viability (ATP), % of control"
Mad2l2,3,52.1,87.1
Zfp655,2,60.9,79.2
Zfp655,1,73.6,66.7
Zfp655,3,74.4,87.6
Or8b50,1,114,82.1

Additional results follow:
gene knocked down,reagent,"GFP, % of control","viability (ATP), % of control"
Ak3,1,60.1,83.7
Or5d18,1,56.5,56.9
Or5d18,2,102,81.6
Or5d18,3,51.3,57.2
Tbc1d13,1,35.9,38.5
Tbc1d13,2,70.2,63.9
Tbc1d13,3,80.8,79
Casp4,1,58.6,82.7
Casp4,2,75.8,65.3
Casp4,3,55.7,69
Fcmr,1,120 (active),81.8
Fcmr,2,108,111
Fcmr,3,41,30.3
Brpf1,1,63.8,63.8
Brpf1,2,73.2,80.1
Brpf1,3,91.6,99.4
Atp6v0a1,1,89.9,90
Atp6v0a1,2,57.9,57.2
Atp6v0a1,3,105,93
Chrna7,1,79.8,146
Chrna7,2,68,63.4
Chrna7,3,66,53.5
Nat1,1,64.5,87.2
Nat1,2,45.8,74.1
Nat1,3,113,97.3
Rif1,1,48.7,27.9
Rif1,2,75.1,73.2
Rif1,3,56,86.9
Urm1,1,86.9,69
Urm1,2,35.9,20.7
Urm1,3,82.8,32.8
Rin3,1,94.4,71.2
Rin3,2,86.1,97.1
Rin3,3,45.8,44.4
